From PubChem BioAssay AID1508600 (Functional Genomics Laboratory (NCATS/FGL), 2020)
In all, about 53,000 sequences went through this assay and about 3,700 (7%) were called active.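 Rule for the calls: active = gene knockdowns whose robust z-score for IL-1 alpha signal is at least 2 or at most -2, so actives lie on both sides; inactive = the rest.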 Some of the results follow.

Experiment: Components of the Cytosolic LPS Sensing Pathway: Gene Identification via Genome-wide siRNA Screen;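 note: robust z of the log signal after scaling to non-targeting control siRNA wells of the plate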
Settings: RAW264.7 macrophages, IL-1a HTRF, actives lie on both sides, screened at 100 nM (by protocol), cells primed 5 h with Pam3CSK4 first
Outline: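 Mouse macrophage line RAW264.7 is transfected with siRNA (100 nM final), grown 48h, primed with TLR ligand Pam3CSK4 5 h and given intracellular LipidA 24 h. IL-1a in supernatant is read by HTRF and viability by luminescence.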

z-score, inactive:
CGCACAGGUCAUUCUCGUGTT against Rab3b 0.0202
GGACAAGGUAUCAUAUUGGTT against St3gal1 -0.456
GGAAGGCCGCAUACUGAUGTT against Scgn -0.218
GGACAUAACUGUUUUAACATT against Dph7 -1.16
GGACACUUCUUAUGAUGACTT against Nrf1 -0.184
GGCCAGGAAAGCUACUUAGTT against Kcnj11 -0.328
CGAAAGAAGUCAAUACAGATT against Zbtb40 0.696
GCAUCUGCCAAAUUCAAUGTT against Hsf4 0.688
CCUAUGAAGCUCCAUUAUGTT against Madcam1 -0.195
AACAGGAAUCUUCUGUAGUTT against Ttc9c -0.0255
GGGAAUUUGAGACCAUUUATT against Stap1 0.356
GCUCCAUGGAUAUUUCUGGTT against Pias1 -0.178
GGACAGACUGAUUUACAAATT against Nav2 1.46
GGUUGCAUUGGGAACUUUCTT against Cd82 0.172
GCCACACUGAAAUAAUUUGTT against Slco1a4 -0.817
GGCCUUUAUCAGAAAGGUGTT against Grina -1.48
GGGUCAUUGUUUUUUCUGUTT against Armc10 -1.04
GGCAUCUCACUGGAAGUGATT against Txndc11 -0.186
CCACAGCACCGGAUAAAACTT against Mrgprb3 -0.0665
GGAAUAAAGAAGUGAAAUCTT against Olfr1009 0.233
GUAGUUGUUCUGAGAAAUCTT against Krtap19-2 -0.49
CCAAAUUGCUUACAUGAUATT against Greb1 1.44
GCAAGAUACUGACCACUAGTT against Krt25 0.14
GCUGAUGCGGAGAUUUUGGTT against Thap12 -0.191
GGAACUCGUCAUGAGAGAATT against Cndp1 -0.155
GGCUAAUGAAGCACGCAGATT against Tspan33 0.264
GCCACAAUGGGCAGUCUUATT against Kcp 0.0139
GGAGAACGAAAGGAUGAAATT against Rpusd4 -1.55
GGAUAACUUGAUCCACCACTT against Olfr382 0.26

Reprinted at random: two records from the list.
z-score, inactive:
GGCUAAUGAAGCACGCAGATT against Tspan33 0.264
CGCACAGGUCAUUCUCGUGTT against Rab3b 0.0202
